The target in test [1] is FAP52, Tetrahymena thermophila (Tetrahymena thermophila) (UniProt Q22ZH2). The experiment in a line: cryo-EM structure; salt-treated doublet microtubules isolated from Tetrahymena; 48 nm and 16 nm repeat maps; lower resolution in the inner junction region; no Tetrahymena atomic model.
Test [2] deals with PArkin Co-Regulated Gene (PACRG), Chlamydomonas reinhardtii (Chlamydomonas reinhardtii) (UniProt B1B601). The experiment in a line: cryo-EM structure; taxol-stabilised, 0.6 M NaCl-washed doublet microtubules isolated from Chlamydomonas flagella; 16 nm repeat map, focused refinement of the inner junction to 3.6 Å; atomic model PDB 6VE7.
Test [3] deals with β-tubulin, Chlamydomonas reinhardtii (Chlamydomonas reinhardtii) (UniProt P04690). The description is as above.
Test [4] deals with α-tubulin, Tetrahymena thermophila (Tetrahymena thermophila) (UniProt P41351). As to the kind of experiment: cryo-EM structure; salt-treated doublet microtubules isolated from Tetrahymena; 48 nm and 16 nm repeat maps; lower resolution in the inner junction region; no Tetrahymena atomic model.

Chains of the proteins cited; added tags and fusions are not shown. Lines headed by an entry give the natural chain unless they say otherwise; changes in a name come on top.
UniProt Q22ZH2: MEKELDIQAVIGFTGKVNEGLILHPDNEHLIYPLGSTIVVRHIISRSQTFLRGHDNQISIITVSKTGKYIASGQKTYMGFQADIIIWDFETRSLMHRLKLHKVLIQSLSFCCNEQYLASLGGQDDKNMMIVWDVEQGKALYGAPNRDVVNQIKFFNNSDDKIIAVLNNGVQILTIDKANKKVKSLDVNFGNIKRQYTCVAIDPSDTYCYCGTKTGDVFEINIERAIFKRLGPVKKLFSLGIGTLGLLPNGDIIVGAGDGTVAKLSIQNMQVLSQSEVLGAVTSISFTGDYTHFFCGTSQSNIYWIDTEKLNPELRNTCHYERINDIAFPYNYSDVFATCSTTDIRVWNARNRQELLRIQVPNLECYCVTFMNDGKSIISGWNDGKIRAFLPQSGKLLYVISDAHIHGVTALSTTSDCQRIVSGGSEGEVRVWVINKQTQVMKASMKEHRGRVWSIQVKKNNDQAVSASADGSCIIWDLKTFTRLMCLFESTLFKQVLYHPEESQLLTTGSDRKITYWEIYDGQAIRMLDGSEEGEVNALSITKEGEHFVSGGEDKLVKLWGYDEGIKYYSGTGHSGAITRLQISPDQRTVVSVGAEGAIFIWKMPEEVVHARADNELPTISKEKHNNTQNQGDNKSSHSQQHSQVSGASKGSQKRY
UniProt B1B601: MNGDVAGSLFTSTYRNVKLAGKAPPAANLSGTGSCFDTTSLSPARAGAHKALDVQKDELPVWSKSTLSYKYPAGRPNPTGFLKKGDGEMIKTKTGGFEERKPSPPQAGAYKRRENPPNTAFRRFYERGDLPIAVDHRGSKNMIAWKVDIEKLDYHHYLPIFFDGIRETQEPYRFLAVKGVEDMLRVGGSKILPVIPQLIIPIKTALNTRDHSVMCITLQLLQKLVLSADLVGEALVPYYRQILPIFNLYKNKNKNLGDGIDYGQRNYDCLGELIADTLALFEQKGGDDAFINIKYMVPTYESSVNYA
UniProt P04690: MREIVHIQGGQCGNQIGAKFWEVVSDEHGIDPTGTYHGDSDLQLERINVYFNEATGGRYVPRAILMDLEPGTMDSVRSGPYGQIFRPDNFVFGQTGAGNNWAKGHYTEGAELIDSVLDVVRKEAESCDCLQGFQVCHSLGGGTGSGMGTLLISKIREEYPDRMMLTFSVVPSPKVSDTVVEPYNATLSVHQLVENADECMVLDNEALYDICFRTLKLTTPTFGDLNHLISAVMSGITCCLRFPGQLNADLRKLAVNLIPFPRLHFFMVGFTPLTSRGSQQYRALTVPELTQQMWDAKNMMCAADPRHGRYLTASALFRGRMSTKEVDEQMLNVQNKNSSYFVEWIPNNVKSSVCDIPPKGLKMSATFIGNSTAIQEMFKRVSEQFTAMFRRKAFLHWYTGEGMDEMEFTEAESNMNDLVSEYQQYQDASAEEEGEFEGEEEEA
UniProt P41351: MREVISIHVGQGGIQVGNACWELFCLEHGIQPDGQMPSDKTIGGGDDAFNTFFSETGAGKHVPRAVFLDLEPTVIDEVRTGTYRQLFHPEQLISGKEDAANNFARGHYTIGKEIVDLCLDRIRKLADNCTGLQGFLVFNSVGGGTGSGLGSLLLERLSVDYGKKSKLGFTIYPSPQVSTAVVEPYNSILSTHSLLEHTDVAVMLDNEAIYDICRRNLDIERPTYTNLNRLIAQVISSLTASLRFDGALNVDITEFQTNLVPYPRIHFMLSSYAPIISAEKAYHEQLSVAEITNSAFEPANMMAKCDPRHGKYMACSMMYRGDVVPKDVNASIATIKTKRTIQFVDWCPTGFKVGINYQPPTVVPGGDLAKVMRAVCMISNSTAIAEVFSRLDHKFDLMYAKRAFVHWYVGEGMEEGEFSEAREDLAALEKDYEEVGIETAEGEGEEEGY
UniProt W7XCX2: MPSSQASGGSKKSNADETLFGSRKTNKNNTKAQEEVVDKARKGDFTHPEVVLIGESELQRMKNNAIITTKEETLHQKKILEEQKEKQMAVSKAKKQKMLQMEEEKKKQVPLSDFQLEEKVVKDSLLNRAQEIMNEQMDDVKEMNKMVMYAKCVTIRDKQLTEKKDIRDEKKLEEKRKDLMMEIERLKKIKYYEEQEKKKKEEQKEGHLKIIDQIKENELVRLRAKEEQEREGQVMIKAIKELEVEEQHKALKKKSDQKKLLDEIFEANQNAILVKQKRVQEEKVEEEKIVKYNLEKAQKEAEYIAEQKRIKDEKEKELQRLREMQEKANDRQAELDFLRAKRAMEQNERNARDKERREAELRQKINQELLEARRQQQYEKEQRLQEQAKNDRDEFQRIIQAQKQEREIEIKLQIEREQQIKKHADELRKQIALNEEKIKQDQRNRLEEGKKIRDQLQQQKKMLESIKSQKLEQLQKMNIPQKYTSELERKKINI
UniProt A0A2K3D260: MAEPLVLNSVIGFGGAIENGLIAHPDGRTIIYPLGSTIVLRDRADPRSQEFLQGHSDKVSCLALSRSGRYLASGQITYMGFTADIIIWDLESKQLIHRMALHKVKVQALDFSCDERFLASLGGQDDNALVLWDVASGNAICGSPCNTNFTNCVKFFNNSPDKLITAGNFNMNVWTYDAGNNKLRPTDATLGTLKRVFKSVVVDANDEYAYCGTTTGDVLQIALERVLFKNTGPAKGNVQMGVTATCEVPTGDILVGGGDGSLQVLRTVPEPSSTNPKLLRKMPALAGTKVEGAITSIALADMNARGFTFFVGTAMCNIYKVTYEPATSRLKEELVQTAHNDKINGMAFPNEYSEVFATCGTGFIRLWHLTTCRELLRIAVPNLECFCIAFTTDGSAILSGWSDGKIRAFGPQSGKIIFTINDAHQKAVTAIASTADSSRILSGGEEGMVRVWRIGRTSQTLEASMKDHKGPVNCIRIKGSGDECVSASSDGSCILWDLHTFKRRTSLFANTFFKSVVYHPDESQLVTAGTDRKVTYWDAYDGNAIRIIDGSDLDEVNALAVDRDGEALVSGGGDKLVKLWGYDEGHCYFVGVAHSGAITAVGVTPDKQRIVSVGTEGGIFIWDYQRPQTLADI
UniProt I7M279: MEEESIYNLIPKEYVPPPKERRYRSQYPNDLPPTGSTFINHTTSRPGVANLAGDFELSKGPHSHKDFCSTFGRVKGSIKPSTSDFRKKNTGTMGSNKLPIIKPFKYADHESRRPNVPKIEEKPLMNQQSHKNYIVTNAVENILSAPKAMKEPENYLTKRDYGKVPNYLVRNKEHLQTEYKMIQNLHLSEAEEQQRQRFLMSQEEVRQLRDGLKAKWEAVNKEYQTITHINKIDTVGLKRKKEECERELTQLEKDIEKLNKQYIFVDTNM

These are yes or no findings as the source states them, for the method shown. A result given as binding can be weak or reduced; the word gives no strength.

Regarding “FAP45, Tetrahymena thermophila (from UniProt W7XCX2)”, in test [1], the binding entry is “binds”.

Regarding “FAP52, Chlamydomonas reinhardtii (from UniProt A0A2K3D260)”, the binding entry in test [2] and in test [3] was “binds” in each case.

For the substance “Tetrahymena thermophila homolog of FAP106 (Tether loop) (from UniProt I7M279)”, the binding entry in test [4] is on record as “binds”.

Take “FAP52, Tetrahymena thermophila (from UniProt Q22ZH2)”: in test [4], the binding entry is reported as “binds”.

The values above are taken from paper PMC6994238.
